Reference: PubChem BioAssay AID651640 (Broad Institute, 2012)
Out of some 350,000 compounds screened, about 6,000 (1.7%) were called active. The shares of active, inactive and inconclusive entries below differ from those in the screen. No stated cut-off is given here; in the data, active means CPE inhibition above about 20% (passing the limit was not always enough); inconclusive means no clear call, values can overlap the other calls; tested in BHK-21 cells.

Test: protection of cells from dengue 2 killing – plate reader, single concentration, primary screen (AID 651640);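 further: 0% = median of neutral control wells and 100% = median of positive control wells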
Details: DENV2-infected cells, cytopathic effect rescue, at 9.99 µM, stronger effect = higher value

Structure (SMILES) | CPE inhibition
C[C@@H]1CN([C@@H](C)CO)C(=O)c2cc(C#Cc3ccncc3)cnc2O[C@H]1CN(C)CC1CCOCC1 | inconclusive: 65.4%
COc1ccc(CN2C(=O)C(CC(=O)NCc3ccco3)CC(C(=O)N3CCOCC3)=C2C)cc1 (stereo not drawn) | inconclusive: 21%
O=C(N/C(=C/c1ccccc1)C(=O)N1CCCCC1)c1ccco1 | inconclusive: 29.8%
CCCN(C)C[C@H]1Oc2ncc(-c3ccccc3)cc2C(=O)N([C@H](C)CO)C[C@H]1C | inactive: 0.885%
CNC[C@@H]1Oc2ccc(NS(=O)(=O)c3ccc(F)cc3)cc2CC(=O)N([C@H](C)CO)C[C@H]1C | inconclusive: 20.5%
Cc1cccc(Nc2cc(=O)n(C)c(=O)[nH]2)c1 | inconclusive: 44.7%
COc1ccc2c3c(n(C)c2c1)[C@@H](CO)N(C(=O)c1ccccc1)CC31CCN(C(C)=O)CC1 | inconclusive: 23.6%
C[C@H](CO)N1C[C@H](C)[C@@H](CN(C)C(=O)Nc2ccc(C(F)(F)F)cc2)OCCCC[C@H](C)Oc2ccc(NC(=O)CCC(F)(F)F)cc2C1=O | inactive: -1.21%
O=C(c1cccnc1)N1C[C@H]2[C@@H](c3ccccc31)[C@@H](CO)N2C(=O)C1CCCC1 | inactive: -7.42%
O=C([C@@H]1[C@@H](CO)[C@@H]2Cn3c(cccc3=O)[C@H]1N2CCC(F)(F)F)N1CCCCC1 | inconclusive: 40.4%
COc1cccc(-c2ccc3c(c2)[C@@H]2[C@@H](CCN2C(=O)Cc2ccncc2)[C@@H](CO)N3)c1 | inconclusive: 28.1%
COc1ccc(OCC(=O)Nc2ccccc2C(=O)NC2CC2)cc1 | inconclusive: 30.9%
CCCC#Cc1cnc2c(c1)C(=O)N([C@H](C)CO)C[C@H](C)[C@H](CN(C)Cc1ccccc1F)O2 | inconclusive: 33.4%
COCCCNC(=O)C1CCCN(S(C)(=O)=O)C1 (stereo not drawn) | inconclusive: 47.2%
Cc1cccc(NC(=O)C2CCCN2C(=O)NC2CCCCC2)c1 (stereo not drawn) | inactive: 0.655%
CCCCc1cn(C[C@H](Cc2ccccc2)NC(=O)N[C@H](CO)CCc2oc(C(C)=O)c(C(=O)OC)c2C(=O)OC)nn1 | active: 22%
Nc1[nH]c(C(=O)c2ccccc2)c(-c2ccccc2Br)c1C(=O)NCc1ccc(-c2ccccc2)cc1 | inconclusive: 24.9%
C[C@@H]1CN([C@@H](C)CO)C(=O)c2cc(NS(C)(=O)=O)ccc2O[C@@H]1CN(C)S(=O)(=O)c1cccs1 | inconclusive: 48.7%
CC(C)NC(=O)N(C)C[C@@H]1Oc2cc(C#Cc3ccccn3)ccc2S(=O)(=O)N([C@H](C)CO)C[C@H]1C | active: 22.3%
C[C@@H]1CCCCO[C@H](CN(C)C)[C@@H](C)CN([C@@H](C)CO)C(=O)c2cc(NC(=O)Nc3ccccc3)ccc2O1 | inactive: 6.19%
COCC(=O)N1CC2(C1)[C@@H](c1ccccc1)[C@@H](CO)N2C(=O)c1ccccc1 | active: 26.6%
C[C@@H]1CCCCO[C@@H](CN(C)C(=O)Nc2ccccc2)[C@H](C)CN([C@@H](C)CO)C(=O)c2cc(NS(C)(=O)=O)ccc2O1 | active: 42.7%
COc1ccccc1C(=O)Nc1ccc(C(=O)Nc2ccccc2C(=O)O)cc1 | inconclusive: 42.7%

Structure (SMILES) | CPE inhibition
CO[C@H]1CN(C)C(=O)c2ccc(NC(=O)Nc3ccc(C(F)(F)F)cc3)cc2OC[C@H](C)NC[C@@H]1C | active: 68.2%
C[C@@H]1CN([C@H](C)CO)C(=O)c2cccc(NC(=O)C3CCOCC3)c2O[C@@H]1CN(C)Cc1ccc2c(c1)OCO2 | inactive: 2.68%
O=C(Nc1ccc(Cl)c(Cl)c1)N[C@H]1CC[C@H](CCn2cc(C3CC3)nn2)O[C@H]1CO | inactive: -0.867%
CC1(Cc2ccc3c(c2)OCO3)C(=O)Nc2c(Cl)ccc(Cl)c21 (stereo not drawn) | inactive: -4.99%
COc1ccccc1-c1cnn2c(NC3CCCC3)cc(C)nc12 | inconclusive: 35.2%
C[C@@H]1CN([C@H](C)CO)C(=O)c2cccc(NS(C)(=O)=O)c2O[C@@H]1CN(C)Cc1ccc(Oc2ccccc2)cc1 | inconclusive: 22.9%
COc1cccc(/C=C/C(=O)NCCc2ccc(OC)c(OC)c2)c1 | active: 99.5%
c1ccc2c3c([nH]c2c1)CCNC3 | inactive: 18.6%
COc1ccc(-c2cnc3c(c2)C(=O)N([C@@H](C)CO)C[C@@H](C)[C@@H](CN(C)Cc2ccccc2)O3)cc1 | inconclusive: 53%
CO[C@@H]1CN(C)C(=O)c2cc(NC(C)=O)ccc2OC[C@H](C)N(C(=O)Cc2ccccn2)C[C@H]1C | inactive: -7.02%
Cc1noc(C)c1NC(=O)Nc1ccc2c(c1)C(=O)N([C@@H](C)CO)C[C@@H](C)[C@@H](CN(C)S(C)(=O)=O)OCCCC[C@@H](C)O2 | active: 102%
CCCCn1c(N)c(N(CCOC)C(=O)CN(C)S(=O)(=O)c2ccc(Cl)cc2)c(=O)[nH]c1=O | inconclusive: 22.7%
COc1ccc(S(=O)(=O)NC2CC(=O)N(c3ccccc3)C2)cc1C (stereo not drawn) | inconclusive: 29.1%
CC(C)NC(=O)N1[C@@H](CO)[C@@H](c2ccccc2)C12CN(Cc1ccccc1)C2 | active: 27.8%
COc1ccc(C(=O)C2CCCN(Cc3ccc(C#CCCO)cc3)C2)c(OC)c1 (stereo not drawn) | inconclusive: 20.7%
Cc1ccc(N(CC(O)Cn2c3ccccc3c3ccccc32)S(C)(=O)=O)cc1 (stereo not drawn) | inactive: -4.91%
COc1ccc(NC(=O)N(C)C[C@H]2OCCCC[C@@H](C)Oc3ccc(NS(=O)(=O)c4ccc(F)cc4)cc3C(=O)N([C@@H](C)CO)C[C@@H]2C)cc1 | inconclusive: 33.4%
COc1ccc(NC(=O)N2CCCCN3[C@H](C2)[C@@H](c2ccc(C4=CCCC4)cc2)[C@@H]3CO)cc1 | inactive: 7.78%
C[C@@H]1CCCCO[C@@H](CN(C)S(=O)(=O)c2ccc(F)cc2)[C@@H](C)CN([C@H](C)CO)C(=O)c2cc(NS(=O)(=O)c3ccccc3)ccc2O1 | inactive: -3.04%
O=C(C[C@H]1CC[C@@H]2[C@H](COC[C@H](O)CN2Cc2cccc(C(F)(F)F)c2)O1)NCCc1ccncc1 | inactive: 1.32%
O=C(N/C(=C/c1ccc(Br)cc1)C(=O)N1CCCCC1)c1ccccc1F | inconclusive: 39.5%
O=C(C[C@@H]1C=C[C@H](NC(=O)C2CC2)[C@H](CO)O1)Nc1ccccc1 | inconclusive: 32.3%
CCOc1ccccc1/C=N/n1nnnc1N | inconclusive: 21.8%

A few values from above:
CPE inhibition with COc1cccc(-c2ccc3c(c2)[C@@H]2[C@@H](CCN2C(=O)Cc2ccncc2)[C@@H](CO)N3)c1 is entered as inconclusive: 28.1%
CPE inhibition with COc1ccccc1-c1cnn2c(NC3CCCC3)cc(C)nc12 is entered as inconclusive: 35.2%

Given as tab-separated lines: part of the list above
Structure (SMILES)	CPE inhibition
COc1ccc(-c2cnc3c(c2)C(=O)N([C@@H](C)CO)C[C@@H](C)[C@@H](CN(C)Cc2ccccc2)O3)cc1	inconclusive: 53%
CCCCn1c(N)c(N(CCOC)C(=O)CN(C)S(=O)(=O)c2ccc(Cl)cc2)c(=O)[nH]c1=O	inconclusive: 22.7%

Additional records

Structure (SMILES) | CPE inhibition
Cc1ccc(S(=O)(=O)N[C@H]2CC[C@@H](CC(=O)NCc3ccncn3)O[C@@H]2CO)cc1 | inactive: -13.6%
O=C(Nc1nccs1)[C@H]1[C@H](CO)[C@H]2Cn3c(cccc3=O)[C@H]2N1C(=O)C1CCCC1 | inactive: -5.14%
CNC[C@H]1OCCCC[C@@H](C)Oc2ccc(NC(=O)NC3CCCCC3)cc2C(=O)N([C@H](C)CO)C[C@H]1C | inconclusive: 24.3%
CC=Cc1ccc2n(c1=O)C[C@H]1[C@H](CO)[C@@H](C(=O)NCc3ccccc3F)N(S(C)(=O)=O)[C@@H]21 (mixture of isomers) | inactive: 4.27%
Cc1oc(-c2cccc(Cl)c2)nc1CSCC(=O)O | inconclusive: 20.8%
CC1(C)CC(=O)C(C=NCCN2CCN(CC(=O)Nc3ccc(F)cc3)CC2)=C(O)C1 | inactive: -5.88%
COc1ccc2c3c(n(C)c2c1)[C@@H](CO)N(C(=O)C1CCC1)CC31CCN(Cc2cccc(F)c2)CC1 | inactive: -2.62%
COc1ccc(S(=O)(=O)Nc2ccc3c(c2)C(=O)N([C@H](C)CO)C[C@H](C)[C@@H](CN(C)Cc2ccccc2)O3)cc1 | inactive: 7.04%
CSCCC(NC(=O)c1ccc([N+](=O)[O-])cc1Cl)C(=O)OCC(=O)NC(=O)CN1CCCC1=O (stereo not drawn) | inconclusive: 25.8%
O=S(=O)(Nc1ccc(C(O)(C(F)(F)F)C(F)(F)F)cc1)c1cccc2cccnc12 | inconclusive: 21.4%
CCOC(=O)N1C2=NC(C(=O)OC)=C(C(=O)OC)[C@@H]3N(C)c4ccccc4[C@]23C[C@H]1C(=O)OC | inconclusive: 31.9%
CCCNC(=O)N[C@H]1CC[C@@H](CCn2cc(C3CC3)nn2)O[C@@H]1CO | inactive: 3.67%
COc1ccc2[nH]c(C)c(CCNC(=S)Nc3ccccc3OC)c2c1 | inactive: 1.97%
CC(=O)N1[C@H](CO)[C@H](c2ccccc2)[C@@H]1CNC(=O)c1ccncc1 | inactive: -2.8%
Cc1ccc(S(=O)(=O)N2C[C@H](O)COC[C@@H]3O[C@H](CC(=O)NCc4ccc(Cl)c(Cl)c4)CC[C@H]32)cc1 | inactive: -11.2%
COc1ccc(NC(=O)Nc2ccc3c(c2)C(=O)N([C@@H](C)CO)C[C@H](C)[C@@H](CN(C)C(=O)C2CCCCC2)OCCCC[C@H](C)O3)cc1 | active: 39.4%
CC(C)(C)OC(=O)N1CCC(CC2CC(c3ccccc3)=NO2)(C(=O)O)CC1 (stereo not drawn) | inconclusive: 28.3%
CC(C)NC(=O)Nc1ccc2c(c1)C(=O)N([C@H](C)CO)C[C@@H](C)[C@H](CN(C)C(=O)Nc1ccc(C(F)(F)F)cc1)OCCCC[C@H](C)O2 | inconclusive: 25.3%
O=C1Cc2cc(S(=O)(=O)N3CCCCC3)ccc2N1 | inactive: -5.04%
CCOC(=O)Nc1ccc(N2CCOCC2)c(S(=O)(=O)N2CCOCC2)c1 | active: 26.2%
CS(=O)(=O)N(CC(=O)NCCSCc1ccccc1)c1ccc2c(c1)OCO2 | inconclusive: 32.5%
COc1ccc2c3c(n(C)c2c1)[C@@H](CO)N(C(=O)c1ccc(F)cc1)CC31CCN(CC2CCOCC2)CC1 | inactive: 5.99%
